This is one part of the list.

Protein sequences, listed by entry. Tags and fused reporters are not part of them. Lines headed by an entry give the natural chain unless they say otherwise; changes in a name come on top.
UniProt Q99967: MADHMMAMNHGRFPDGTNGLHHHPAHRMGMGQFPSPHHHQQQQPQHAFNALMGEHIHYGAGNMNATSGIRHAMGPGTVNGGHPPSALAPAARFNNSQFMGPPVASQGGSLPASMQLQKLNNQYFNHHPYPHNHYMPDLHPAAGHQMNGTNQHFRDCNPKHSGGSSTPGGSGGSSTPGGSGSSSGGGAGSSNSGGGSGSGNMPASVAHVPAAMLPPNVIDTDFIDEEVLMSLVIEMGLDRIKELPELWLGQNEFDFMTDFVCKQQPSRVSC
UniProt P0C7P0: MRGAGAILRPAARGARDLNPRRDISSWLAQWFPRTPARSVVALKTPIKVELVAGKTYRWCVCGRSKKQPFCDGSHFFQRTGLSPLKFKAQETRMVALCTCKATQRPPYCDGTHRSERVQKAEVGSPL
UniProt Q8WUD6: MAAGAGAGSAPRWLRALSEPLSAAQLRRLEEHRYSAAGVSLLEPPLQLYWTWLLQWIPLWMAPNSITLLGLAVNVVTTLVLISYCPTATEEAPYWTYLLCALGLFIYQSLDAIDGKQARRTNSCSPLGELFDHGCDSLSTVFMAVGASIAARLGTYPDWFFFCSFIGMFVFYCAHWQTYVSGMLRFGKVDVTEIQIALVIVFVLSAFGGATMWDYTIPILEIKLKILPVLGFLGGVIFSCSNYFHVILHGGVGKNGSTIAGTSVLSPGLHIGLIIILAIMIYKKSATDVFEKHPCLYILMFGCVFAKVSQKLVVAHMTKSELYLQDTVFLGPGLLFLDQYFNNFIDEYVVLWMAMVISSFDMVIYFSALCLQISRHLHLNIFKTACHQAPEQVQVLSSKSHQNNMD
UniProt Q8IZR5: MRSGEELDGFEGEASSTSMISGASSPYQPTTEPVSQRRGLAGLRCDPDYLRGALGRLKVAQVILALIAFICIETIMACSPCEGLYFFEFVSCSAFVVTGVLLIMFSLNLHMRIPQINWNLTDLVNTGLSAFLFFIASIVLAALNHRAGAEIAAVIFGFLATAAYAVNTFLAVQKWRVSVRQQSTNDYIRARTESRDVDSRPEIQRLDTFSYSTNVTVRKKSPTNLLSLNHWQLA
UniProt Q7Z460: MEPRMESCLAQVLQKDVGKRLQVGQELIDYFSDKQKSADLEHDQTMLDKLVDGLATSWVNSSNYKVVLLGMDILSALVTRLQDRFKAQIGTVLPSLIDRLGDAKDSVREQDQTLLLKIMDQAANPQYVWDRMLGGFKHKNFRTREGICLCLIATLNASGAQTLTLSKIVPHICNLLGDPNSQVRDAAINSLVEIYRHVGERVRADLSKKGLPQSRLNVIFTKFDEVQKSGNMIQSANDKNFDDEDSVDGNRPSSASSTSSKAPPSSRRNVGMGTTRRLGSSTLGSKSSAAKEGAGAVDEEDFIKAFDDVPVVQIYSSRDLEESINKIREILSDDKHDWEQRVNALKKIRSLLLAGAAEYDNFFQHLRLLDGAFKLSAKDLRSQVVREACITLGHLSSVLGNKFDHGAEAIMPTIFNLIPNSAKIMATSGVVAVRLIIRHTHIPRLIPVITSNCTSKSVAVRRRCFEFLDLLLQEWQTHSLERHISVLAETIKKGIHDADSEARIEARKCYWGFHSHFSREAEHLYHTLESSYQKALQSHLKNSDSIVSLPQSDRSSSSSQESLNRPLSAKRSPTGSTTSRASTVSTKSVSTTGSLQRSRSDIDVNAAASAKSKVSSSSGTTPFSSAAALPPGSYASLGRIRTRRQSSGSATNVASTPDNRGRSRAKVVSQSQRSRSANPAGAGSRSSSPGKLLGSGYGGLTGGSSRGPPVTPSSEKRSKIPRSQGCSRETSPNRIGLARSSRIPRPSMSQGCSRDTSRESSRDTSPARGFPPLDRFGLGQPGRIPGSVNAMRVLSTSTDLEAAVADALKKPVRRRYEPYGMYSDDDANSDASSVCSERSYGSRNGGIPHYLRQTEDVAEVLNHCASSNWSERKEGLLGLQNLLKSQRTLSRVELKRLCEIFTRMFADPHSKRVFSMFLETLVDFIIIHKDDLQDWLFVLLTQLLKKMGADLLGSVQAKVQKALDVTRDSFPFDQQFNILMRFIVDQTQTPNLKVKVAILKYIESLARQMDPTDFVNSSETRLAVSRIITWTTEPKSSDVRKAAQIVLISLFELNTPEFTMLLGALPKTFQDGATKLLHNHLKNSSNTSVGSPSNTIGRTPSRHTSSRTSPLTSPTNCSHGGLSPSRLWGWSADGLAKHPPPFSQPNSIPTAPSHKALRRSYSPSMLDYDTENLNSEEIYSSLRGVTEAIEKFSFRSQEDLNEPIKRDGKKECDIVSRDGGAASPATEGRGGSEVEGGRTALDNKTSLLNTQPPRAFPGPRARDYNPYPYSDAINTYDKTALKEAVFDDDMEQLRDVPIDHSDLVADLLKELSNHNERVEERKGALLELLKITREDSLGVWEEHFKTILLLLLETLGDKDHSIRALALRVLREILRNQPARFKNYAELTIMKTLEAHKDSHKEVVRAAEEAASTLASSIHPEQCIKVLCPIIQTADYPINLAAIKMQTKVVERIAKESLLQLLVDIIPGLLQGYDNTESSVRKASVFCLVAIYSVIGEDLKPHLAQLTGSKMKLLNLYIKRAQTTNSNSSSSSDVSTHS
UniProt Q8NCH0: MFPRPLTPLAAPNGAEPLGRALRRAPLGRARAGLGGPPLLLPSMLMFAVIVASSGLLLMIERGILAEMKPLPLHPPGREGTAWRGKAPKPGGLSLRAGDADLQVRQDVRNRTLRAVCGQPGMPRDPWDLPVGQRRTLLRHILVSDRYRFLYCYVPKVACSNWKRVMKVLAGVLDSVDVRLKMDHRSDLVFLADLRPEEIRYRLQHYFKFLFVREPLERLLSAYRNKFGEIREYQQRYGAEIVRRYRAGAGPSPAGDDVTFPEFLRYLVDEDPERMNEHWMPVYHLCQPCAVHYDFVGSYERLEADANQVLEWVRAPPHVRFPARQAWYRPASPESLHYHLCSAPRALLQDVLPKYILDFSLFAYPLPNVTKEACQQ
UniProt P30622: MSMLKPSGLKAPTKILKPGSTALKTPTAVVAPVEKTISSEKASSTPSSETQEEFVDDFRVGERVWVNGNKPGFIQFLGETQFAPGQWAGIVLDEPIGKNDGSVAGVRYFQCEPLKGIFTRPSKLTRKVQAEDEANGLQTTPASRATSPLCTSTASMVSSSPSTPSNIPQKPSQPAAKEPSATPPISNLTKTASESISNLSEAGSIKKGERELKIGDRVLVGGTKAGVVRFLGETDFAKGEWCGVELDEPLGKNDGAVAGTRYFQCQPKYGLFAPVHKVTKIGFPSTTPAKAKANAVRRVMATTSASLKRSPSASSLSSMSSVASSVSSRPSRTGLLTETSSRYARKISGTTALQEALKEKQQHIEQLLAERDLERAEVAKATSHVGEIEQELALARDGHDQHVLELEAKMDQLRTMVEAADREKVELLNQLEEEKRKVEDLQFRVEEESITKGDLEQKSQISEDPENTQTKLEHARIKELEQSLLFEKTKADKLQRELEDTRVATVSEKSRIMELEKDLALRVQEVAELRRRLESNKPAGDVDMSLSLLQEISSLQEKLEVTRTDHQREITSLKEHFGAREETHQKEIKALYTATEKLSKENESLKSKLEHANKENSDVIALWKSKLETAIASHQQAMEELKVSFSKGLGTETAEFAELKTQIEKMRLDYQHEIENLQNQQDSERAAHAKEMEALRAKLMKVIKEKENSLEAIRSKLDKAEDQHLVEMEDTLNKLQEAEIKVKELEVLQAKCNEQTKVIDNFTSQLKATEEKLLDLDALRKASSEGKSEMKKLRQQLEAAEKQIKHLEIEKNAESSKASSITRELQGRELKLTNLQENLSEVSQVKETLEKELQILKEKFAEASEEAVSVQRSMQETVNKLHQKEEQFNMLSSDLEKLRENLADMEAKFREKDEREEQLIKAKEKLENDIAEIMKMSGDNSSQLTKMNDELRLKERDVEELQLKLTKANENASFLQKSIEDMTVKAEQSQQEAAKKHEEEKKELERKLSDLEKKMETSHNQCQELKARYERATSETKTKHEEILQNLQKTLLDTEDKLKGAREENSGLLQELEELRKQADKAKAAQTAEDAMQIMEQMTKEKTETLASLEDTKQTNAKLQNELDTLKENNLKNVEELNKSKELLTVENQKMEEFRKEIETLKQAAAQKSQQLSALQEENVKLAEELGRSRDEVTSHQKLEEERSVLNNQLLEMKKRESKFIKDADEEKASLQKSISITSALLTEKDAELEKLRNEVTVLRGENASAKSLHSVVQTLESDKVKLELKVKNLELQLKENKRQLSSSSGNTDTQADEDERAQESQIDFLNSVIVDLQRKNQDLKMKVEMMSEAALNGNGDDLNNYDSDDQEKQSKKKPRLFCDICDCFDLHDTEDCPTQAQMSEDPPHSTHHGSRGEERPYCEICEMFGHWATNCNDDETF
UniProt P10909, whole entry, looked up: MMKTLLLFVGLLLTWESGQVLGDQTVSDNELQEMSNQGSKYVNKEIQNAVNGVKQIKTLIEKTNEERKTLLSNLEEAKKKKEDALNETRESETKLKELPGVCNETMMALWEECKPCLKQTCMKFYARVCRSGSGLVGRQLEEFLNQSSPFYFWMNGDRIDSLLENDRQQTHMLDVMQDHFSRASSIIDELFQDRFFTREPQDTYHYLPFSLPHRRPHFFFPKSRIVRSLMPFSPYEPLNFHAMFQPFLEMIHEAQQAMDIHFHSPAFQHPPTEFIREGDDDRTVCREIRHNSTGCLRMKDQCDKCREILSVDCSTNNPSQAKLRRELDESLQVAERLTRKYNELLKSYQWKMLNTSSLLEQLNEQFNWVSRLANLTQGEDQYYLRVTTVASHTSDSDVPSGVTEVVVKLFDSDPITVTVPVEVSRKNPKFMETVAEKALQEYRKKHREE
UniProt Q9BSY4: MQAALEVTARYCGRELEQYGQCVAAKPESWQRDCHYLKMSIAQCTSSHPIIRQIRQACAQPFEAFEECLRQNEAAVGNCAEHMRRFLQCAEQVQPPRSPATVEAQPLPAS
UniProt P49761: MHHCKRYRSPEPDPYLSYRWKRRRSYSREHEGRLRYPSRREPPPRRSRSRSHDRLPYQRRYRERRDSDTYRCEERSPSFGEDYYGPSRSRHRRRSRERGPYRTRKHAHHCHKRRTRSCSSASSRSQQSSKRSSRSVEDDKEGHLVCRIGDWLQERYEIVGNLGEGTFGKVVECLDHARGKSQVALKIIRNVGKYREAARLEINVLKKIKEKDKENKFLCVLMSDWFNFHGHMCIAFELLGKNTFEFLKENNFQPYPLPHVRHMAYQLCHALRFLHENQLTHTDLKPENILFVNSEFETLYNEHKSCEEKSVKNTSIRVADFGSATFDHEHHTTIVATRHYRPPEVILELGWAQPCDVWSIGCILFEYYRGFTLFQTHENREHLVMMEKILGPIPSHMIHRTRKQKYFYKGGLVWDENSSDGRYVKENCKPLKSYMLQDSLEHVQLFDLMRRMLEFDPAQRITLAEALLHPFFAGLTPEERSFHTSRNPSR
UniProt Q86X52: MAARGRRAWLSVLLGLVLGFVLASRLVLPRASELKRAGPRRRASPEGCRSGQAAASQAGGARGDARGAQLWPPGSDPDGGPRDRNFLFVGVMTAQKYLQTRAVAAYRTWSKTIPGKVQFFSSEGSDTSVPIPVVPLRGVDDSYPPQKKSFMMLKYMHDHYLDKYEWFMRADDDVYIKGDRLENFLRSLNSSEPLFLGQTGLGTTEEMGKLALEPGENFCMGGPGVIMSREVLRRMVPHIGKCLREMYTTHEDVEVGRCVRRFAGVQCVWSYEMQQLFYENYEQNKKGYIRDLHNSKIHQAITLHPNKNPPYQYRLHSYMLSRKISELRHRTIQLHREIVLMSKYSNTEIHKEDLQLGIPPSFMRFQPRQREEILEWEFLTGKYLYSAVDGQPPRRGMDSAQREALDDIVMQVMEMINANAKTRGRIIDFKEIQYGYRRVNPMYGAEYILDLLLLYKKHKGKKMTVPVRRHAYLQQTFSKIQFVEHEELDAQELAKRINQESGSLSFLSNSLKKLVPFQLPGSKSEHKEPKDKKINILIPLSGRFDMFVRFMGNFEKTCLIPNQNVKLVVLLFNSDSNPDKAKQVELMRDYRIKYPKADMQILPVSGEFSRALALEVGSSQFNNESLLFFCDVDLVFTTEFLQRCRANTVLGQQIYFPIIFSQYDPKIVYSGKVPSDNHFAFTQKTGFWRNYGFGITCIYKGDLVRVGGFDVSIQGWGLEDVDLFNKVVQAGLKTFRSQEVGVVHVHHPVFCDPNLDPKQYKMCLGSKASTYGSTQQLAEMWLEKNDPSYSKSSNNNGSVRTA

This note sets out measurements from the supplement of paper PMC10849652.

Assay in all cases: log2 fold change, soluble protein after heating vs DMSO (PISA); higher = thermal stabilisation; K562 lysate, 10 uM; active = over 0.2 and 3.5 SD of the protein, either way, in both replicates (recomputed)
Compound in assay [1]: Cc1sc2c(c1C)C(c1ccc(Cl)cc1)=N[C@@H](CC(=O)OC(C)(C)C)c1nnc(C)n1-2
A digest of the protocol: (§1)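 A 30 min treatment with 10 μM compound was applied to crude K562 extract at 1 mg/mL protein in PBS pH 7.4 with 1 mM MgCl2. Heating for 3 min spanned 48°C-58°C, after which aliquots were pooled, adjusted to 0.5% NP-40 at 4°C and spun at 21,000xg for 90 min. TMTpro 16plex LC-MS/MS of the supernatant, with channel sums equalised, gave values recorded as log-two fold change in thermal stability against solvent controls, from duplicates.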

Compound in assay [2]: CC1=C2C(=CC=C1)N=C(N(C2=O)C3=CC=CC=C3C)CN4C=NC5=C(N=CN=C54)N
The method, boiled down:
as §1

Compound in assay [3]: c1ccc([C@@H]2C[C@H]2NC2CCNCC2)cc1
The method, boiled down: as §1

Compound in assay [4]: C1=CC=C(C=C1)[C@H](COC2=CC3=C(C=C2)NC(=O)N3)NC(=O)C4=CC=CN(C4=O)CC5=CC(=C(C=C5)F)F
The method, boiled down: as §1

Compound in assay [5]: CC1=C(SC2=C1C(=N[C@H](C3=NN=C(N32)C)CC(=O)N)C4=CC=C(C=C4)Cl)C
A digest of the protocol: as §1

Regarding CITED2 (UniProt Q99967), the log2 fold change in assay [1] is inactive: -0.016.
For the target CISD3 (UniProt P0C7P0), the log2 fold change in assay [2] is inactive: 0.04; in assay [1] it was inactive: -0.043; in assay [3], inactive: 0.047.
CLIP1, A0A3B3ITA2: the figures for the log2 fold change in assay [2] and in assay [3] were inactive: 0.035 and inactive: -0.123, respectively.
For the target CHMP2A (UniProt M0R1T5), in assay [3], the log2 fold change is inactive: 0.069.
Regarding CLUAP1 (UniProt Q96AJ1), the values for the log2 fold change in assay [2], in assay [1] and in assay [3] were inactive: 0.115, inactive: 0.099 and inactive: 0.243, respectively.
CHTF18 (UniProt Q8WVB6): the log2 fold change in assay [1] was inactive: 0.02.
Consider CHPT1 (UniProt Q8WUD6), for which the log2 fold change in assay [4] was inactive: -0.308; in assay [5], inactive: -0.031; in assay [3] it was inactive: 0.089.
With CMTM4 (UniProt Q8IZR5), the values for the log2 fold change in assay [2] and in assay [3] were inactive: 0.093 and inactive: -0.035, respectively.
Take CLASP1 isoform 4 (UniProt Q7Z460): the log2 fold change in assay [2] was inactive: 0.056.
Consider CHST14 (UniProt Q8NCH0), for which the figures for the log2 fold change in assay [1] and in assay [3] were inactive: 0.09 and inactive: -0.006, respectively.
As for CHD4, A0A2R8Y521, in assay [1], the log2 fold change was inactive: -0.136.
As to CLIP1 isoform 2 (UniProt P30622), the log2 fold change in assay [4] was inactive: 0.11; in assay [5] it was inactive: -0.03; in assay [1], inactive: 0.009; in assay [3], inactive: -0.002.
On to CLU isoform 2 (UniProt P10909), for which the log2 fold change in assay [3] was inactive: -0.086.
With CHCHD5 (UniProt Q9BSY4), the log2 fold change in assay [1] was inactive: 0.092; in assay [3] it was inactive: 0.204.
Consider CHPF2 (UniProt Q9P2E5), for which the results for the log2 fold change in assay [2] and in assay [1] were inactive: 0.14 and inactive: -0.033, respectively.
On to CLK3 (UniProt P49761), for which the log2 fold change in assay [2] was inactive: -0.074; in assay [1], inactive: 0.023.
As to CHSY1 (UniProt Q86X52), the log2 fold change in assay [4] was inactive: 0.139; in assay [5], inactive: -0.105; in assay [1] it was inactive: 0.075; in assay [3], inactive: 0.232.
